Values from PubChem BioAssay AID652272 (Drosophila RNAi Screening Center, 2013).
Test: 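Finding fly genes that regulate Hedgehog signal transduction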 (primary screen). System: Drosophila clone 8 (Cl8) cells. Reagents: long dsRNA against Drosophila genes. Measurement: 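Firefly light from a Hedgehog-responsive ptc promoter reporter and Renilla reference light, both read on a plate reader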. Direction: firefly Hh reporter signal: higher = more ptc reporter light; Renilla reference signal: higher = more Renilla control light. Hit rule: 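Hit when the z-score averaged over two replicates is under -2 or over +3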. Meaning of the calls: active = hit: reporter lowered or raised; inactive = not a hit.
The screen tested about 21,000 reagents; below is an unselected part of those with a known target gene and a result. Of all reagents, 503 (2.4%) are marked active. 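Raw plate light values, not normalised; calls rest on replicate z-scores that were not deposited; hits include reporter decreases as well as increases.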 Reagents against one gene are numbered here. Names joined by + are all predicted targets of the reagent. The record does not give: the amount of reagent, the time to read-out.

| firefly Hh reporter signal, replicate 1 | firefly Hh reporter signal, replicate 2 | firefly Hh reporter signal, replicate 3 | Renilla reference signal, replicate 1 | Renilla reference signal, replicate 2 | activity call | predicted target | reagent no. |
| --- | --- | --- | --- | --- | --- | --- | --- |
| 1.11e5 | 82458 | – | 4208 | 3696 | inactive | CG4836 | 1 |
| 67786 | 1.60e5 | – | 2433 | 6645 | inactive | Paf-AHalpha (Platelet-activating factor acetylhydrolase alpha) | 1 |
| 85280 | 3.09e5 | – | 2985 | 11008 | inactive | CG15196 | 1 |
| 1.08e5 | 2.45e5 | – | 4512 | 10451 | inactive | CG14219 | 1 |
| 71283 | 76914 | – | 3945 | 3126 | inactive | Strn-Mlck (Stretchin-Mlck) | 1 |
| 1.60e5 | 2.56e5 | – | 4441 | 12293 | inactive | Strn-Mlck (Stretchin-Mlck) | 2 |
| 1.02e5 | 60768 | – | 2792 | 4508 | inactive | Strn-Mlck (Stretchin-Mlck) | 3 |
| 67648 | 65475 | – | 1874 | 4122 | inactive | Strn-Mlck (Stretchin-Mlck) | 4 |
| 6.12e5 | 2.40e5 | – | 31385 | 9325 | inactive | CG33127 | 1 |
| 66025 | 1.80e5 | – | 1248 | 8119 | inactive | Ir7c (Ionotropic receptor 7c) | 1 |
| 1.38e5 | 1.73e5 | – | 4048 | 7760 | inactive | CG42697 | 1 |
| 1.38e5 | 76208 | – | 3353 | 6624 | inactive | Mmp2 (Matrix metalloproteinase 2) | 1 |
| 69697 | 69584 | – | 3435 | 2522 | inactive | Tmem131 (Transmembrane protein 131) | 1 |
| 48864 | 1.04e5 | – | 1589 | 4592 | inactive | CG15368 | 1 |
| 80443 | 75189 | – | 2357 | 5488 | inactive | Obp56e (Odorant-binding protein 56e) | 1 |
| 97552 | 2.78e5 | – | 3801 | 10121 | inactive | Cyp4d14 (Cytochrome P450 4d14) | 1 |
| 29408 | 46243 | – | 1837 | 3204 | active | RpL26 (Ribosomal protein L26) | 1 |
| 99735 | 71024 | – | 4160 | 3140 | inactive | bisc (biscotti) | 1 |
| 97644 | 99867 | – | 4909 | 3796 | inactive | veil | 1 |
| 73312 | 53600 | – | 1741 | 4628 | inactive | ND-B12 (NADH dehydrogenase (ubiquinone) B12 subunit) | 1 |
| 88355 | 1.18e5 | – | 2700 | 3424 | inactive | CG14684 | 1 |
| 2.60e5 | 1.71e5 | – | 17944 | 395 | inactive | CG12499 | 1 |
| 1.13e5 | 76902 | – | 4509 | 2945 | inactive | sano (serrano) | 1 |
| 4.47e5 | 1.93e5 | – | 27025 | 4980 | inactive | CR18166 (pseudo) | 1 |
| 73640 | 2.22e5 | – | 3057 | 10248 | inactive | CR18166 (pseudo) | 2 |
| 81728 | 1.99e5 | – | 2016 | 8173 | inactive | Cpr12A (Cuticular protein 12A) | 1 |
| 90067 | 62592 | – | 2418 | 4897 | inactive | Slc25A46b | 1 |
| 1.13e5 | 1.24e5 | – | 4308 | 4679 | inactive | CG7840 | 1 |
| 1.08e5 | 89837 | – | 4353 | 2938 | inactive | Unr (Upstream of N-ras) | 1 |
| 87751 | 85444 | – | 3088 | 3180 | inactive | alpha-Man-IIb (alpha-Mannosidase class II b) | 1 |
| 65904 | 81664 | – | 2652 | 1994 | inactive | Art6 (Arginine methyltransferase 6) | 1 |
| 79781 | 6.26e5 | 1.42e5 | 2717 | 4491 | inactive | CG17816 | 1 |
| 3.64e5 | 1.35e5 | – | 14432 | 1571 | inactive | lncRNA:sphinx + ATPsynF | 1 |
| 71629 | 39689 | – | 1570 | 4803 | inactive | CG3500 | 1 |
| 1.06e5 | 78541 | – | 4081 | 2501 | inactive | MED6 (Mediator complex subunit 6) | 1 |
| 78466 | 89270 | – | 3618 | 4035 | inactive | Caper | 1 |
| 6.37e5 | 2.55e5 | – | 33782 | 5808 | inactive | Actbeta (Activin-beta) | 1 |
| 71333 | 1.74e5 | – | 2050 | 6984 | inactive | Actbeta (Activin-beta) | 2 |
| 92308 | 55090 | – | 1932 | 5062 | inactive | CG30274 | 1 |
| 54666 | 58909 | – | 2042 | 3846 | inactive | E(bx) (Enhancer of bithorax) | 1 |
| 67666 | 40518 | – | 2092 | 2658 | inactive | E(bx) (Enhancer of bithorax) | 2 |
| 48071 | 40950 | – | 2720 | 1968 | inactive | E(bx) (Enhancer of bithorax) | 3 |
| 1.83e5 | 1.10e5 | – | 7643 | 4593 | inactive | CG9649 | 1 |
| 97840 | 78551 | – | 1604 | 1936 | inactive | CG1647 | 1 |
| 36337 | 31857 | – | 2312 | 1344 | inactive | Cirl (Calcium-independent receptor for alpha-latrotoxin) | 1 |
| 71504 | 69830 | – | 2122 | 1990 | inactive | CG11686 | 1 |
| 75244 | 44692 | – | 1592 | 3414 | inactive | CR12842 (pseudo) | 1 |
| 96020 | 1.61e5 | – | 3478 | 7159 | inactive | Npc1b (Niemann-Pick type C-1b) | 1 |
| 1.83e5 | 78044 | – | 6992 | 3180 | inactive | nwk (nervous wreck) | 1 |
| 28801 | 41136 | – | 960 | 3720 | inactive | nwk (nervous wreck) | 2 |
| 89402 | 64480 | – | 2019 | 5024 | inactive | tor (torso) | 1 |
| 60296 | 2.89e5 | – | 13900 | 6412 | inactive | CG34299 | 1 |
| 66644 | 44064 | – | 1677 | 3553 | inactive | CG13168 | 1 |
| 94336 | 50051 | – | 4176 | 1248 | inactive | CG1603 | 1 |
| 27866 | 20908 | – | 1441 | 3857 | active | RpL30 (Ribosomal protein L30) | 1 |
| 5.69e5 | 81235 | – | 27463 | 2614 | inactive | Ire1 (Inositol-requiring enzyme-1) | 1 |
| 75196 | 60563 | – | 1929 | 3856 | inactive | veg (retired record) | 1 |

Entries above called active (2):
| firefly Hh reporter signal, replicate 1 | firefly Hh reporter signal, replicate 2 | firefly Hh reporter signal, replicate 3 | Renilla reference signal, replicate 1 | Renilla reference signal, replicate 2 | activity call | predicted target | reagent no. |
| --- | --- | --- | --- | --- | --- | --- | --- |
| 29408 | 46243 | – | 1837 | 3204 | active | RpL26 (Ribosomal protein L26) | 1 |
| 27866 | 20908 | – | 1441 | 3857 | active | RpL30 (Ribosomal protein L30) | 1 |
